Experimental data: PubChem BioAssay AID1259405 (NCATS, 2018)

Purpose: 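Silenced genes that increase secreted GFP made by CHO cells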 (primary screen)
Cells: Chinese hamster CHO-K1 ovary cells with stable secreted eGFP expression
Knock-down reagent: single siRNA against mouse genes, 0.8 pmol siRNA per well (2 µl of 400 nM stock)
Timing: 3 days
Detection: 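Percent of the per-plate non-targeting control median for intracellular GFP per well by laser scanning cytometry and for cell viability by ATP luminescence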
Reading the numbers: GFP, % of control: higher = more GFP per well, higher productivity
Call rule: 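Called active when intracellular GFP, relative to negative control, is at or above 120%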
This is an unselected part of about 50,000 deposited reagents. Over the whole deposit, about 4,000 (8%) are marked active. 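Mouse siRNA library applied to hamster cells; one well for each siRNA.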 Further read-outs or replicates are left out here. Reagent sequences are not shown.

GFP, % of control, by gene and reagent
Ndel1 (nudE neurodevelopment protein 1 like 1): SID363562165 57.6 inactive; SID363567303 70 inactive; SID363584660 82.5 inactive
Adam26b (a disintegrin and metallopeptidase domain 26B): SID363547233 74.3 inactive; SID363558002 131 active; SID363559760 76.9 inactive
5330438I03Rik (RIKEN cDNA 5330438I03 gene): SID363552315 71.5 inactive; SID363585451 95.4 inactive; SID363585802 115 inactive
Sharpin (SHANK-associated RH domain interacting protein): SID363569100 91.9 inactive; SID363583532 89.9 inactive
Ifna6 (interferon alpha 6): SID363541445 58.7 inactive; SID363556072 124 active; SID363566361 108 inactive
Pom121 (nuclear pore membrane protein 121): SID363554503 56.6 inactive; SID363567950 63.6 inactive; SID363586009 68.3 inactive
2200002J24Rik (RIKEN cDNA 2200002J24 gene): SID363543642 55 inactive; SID363553135 44.8 inactive; SID363558983 71.2 inactive
Pcdhb11 (protocadherin beta 11): SID363541824 93.7 inactive; SID363553416 131 active; SID363566740 82.5 inactive
Tll2 (tolloid-like 2): SID363582529 97.6 inactive; SID363584289 92.3 inactive
Cpap (centrosome assembly and centriole elongation protein): SID363544076 96.6 inactive; SID363550404 107 inactive; SID363556953 60.5 inactive

6 entries already listed, arranged by “GFP, % of control”, lowest first:
Gene	PubChem SID	GFP, % of control	call
Pcdhb11 (protocadherin beta 11)	SID363566740	82.5	inactive
Tll2 (tolloid-like 2)	SID363584289	92.3	inactive
Pcdhb11 (protocadherin beta 11)	SID363541824	93.7	inactive
Cpap (centrosome assembly and centriole elongation protein)	SID363544076	96.6	inactive
Tll2 (tolloid-like 2)	SID363582529	97.6	inactive
Pcdhb11 (protocadherin beta 11)	SID363553416	131	active

Next results follow.
GFP, % of control, by gene and reagent
Uqcrh (ubiquinol-cytochrome c reductase hinge protein): SID363573034 84.7 inactive; SID363577610 37.7 inactive; SID363581130 64.1 inactive
Fank1 (fibronectin type 3 and ankyrin repeat domains 1): SID363539956 72.7 inactive; SID363561257 50.9 inactive; SID363564293 103 inactive
Erf (Ets2 repressor factor): SID363572474 117 inactive; SID363577754 93.1 inactive; SID363581978 106 inactive
Rab39b (RAB39B, member RAS oncogene family): SID363570032 90.5 inactive; SID363576368 73.9 inactive; SID363579536 69 inactive
Rmp64 (ribonuclease MRP subunit p64): SID363547050 48.4 inactive; SID363549862 88.7 inactive; SID363587916 105 inactive
Slc10a5: SID363547746 148 active; SID363558515 68.5 inactive; SID363560273 75.2 inactive
A430093F15Rik (RIKEN cDNA A430093F15 gene): SID363542637 47.8 inactive; SID363546154 153 active; SID363547910 74.6 inactive
Slbp (stem-loop binding protein): SID363546125 57.9 inactive; SID363549638 94.4 inactive; SID363563444 63.5 inactive
Tal1 (T cell acute lymphocytic leukemia 1): SID363573575 47 inactive; SID363581319 55.5 inactive; SID363583783 74.1 inactive
Oas1b (2'-5' oligoadenylate synthetase 1B): SID363545208 126 active; SID363548721 81.6 inactive; SID363562527 42.8 inactive
